Here are results for 42 sequences from article PMC7819943, “Rice protein-binding microarrays: a tool to detect cis-acting elements near promoter regions in rice”.

Amino acid sequences for entries named in this document (tags omitted).
UniProt Q0JBA9, entry or part of it: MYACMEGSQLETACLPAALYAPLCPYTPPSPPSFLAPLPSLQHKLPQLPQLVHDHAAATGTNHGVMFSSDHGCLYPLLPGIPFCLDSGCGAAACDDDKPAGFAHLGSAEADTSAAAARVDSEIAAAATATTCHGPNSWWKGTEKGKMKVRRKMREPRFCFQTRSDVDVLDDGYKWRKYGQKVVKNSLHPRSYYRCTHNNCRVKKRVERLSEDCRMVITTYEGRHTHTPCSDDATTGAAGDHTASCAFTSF

Some of the results follow.

The experiment has as its target OsWRKY34 (Oryza sativa, UniProt Q0JBA9 1-250). In words: protein-binding microarray (RPBM); PBS, 2% BSA, 51.3 ng/ul salmon testes DNA, 50 uM zinc acetate, 200 nM TF, 25 C, 1 h; high values mean tight binding. Conditions: protein: recombinant; tags: N-terminal polyhistidine and DsRed monomer fusion (pET32a); label: CyDye5-dUTP incorporated in the synthesized complementary strand; 3' TTTTT single-stranded linker to array surface; dsDNA, one strand shown. In a few lines: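 The binding signal for each feature is its fluorescence intensity in arbitrary units. An Axon 4000B scanner was used to read a custom Agilent array that had been made double-stranded with Cy5-dUTP primer extension, blocked with 2% BSA, incubated at 25 °C for 1 h with 200 nM protein in PBS, 2% BSA, salmon testes DNA and 50 µM zinc acetate, and washed. The protein was an N-terminal polyhistidine–DsRed transcription factor fusion from E. coli BL21-CodonPlus, purified on Ni–NTA.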
For the sequence “AGGTGGTCGGGGATGGCAACGATAGGTCAGGGACGACGGACGGAGTCACCTAGTGCAG”, the binding signal was 9240 fluorescence intensity (a.u.).

On to “TGATGTTCTTGCCAAGACCCCGACATTTTCTCTTGATTCTCGGAGTCACCTAGTGCAG”, for which the binding signal is 8390 fluorescence intensity (a.u.). As for “CTCCGTCGCCACTCACACCCATGGCCTTGACCGCTACTAGCGGAGTCACCTAGTGCAG”, the figure is 9550 fluorescence intensity (a.u.).

Take “TGTGTATCCATTTCTGGTTTTGTGGTTAAGGGACTTTAAACGGAGTCACCTAGTGCAG”: the binding signal is 8520 fluorescence intensity (a.u.). The result for “TCTTATGCTTACCCTCTTTGTTGTATCAGTTCATACCATACGGAGTCACCTAGTGCAG” reads 8080 fluorescence intensity (a.u.). The result for “GGCCCACCAACACTCTGACCCCACCAAATCAGTGACTGAACGGAGTCACCTAGTGCAG” reads 8210 fluorescence intensity (a.u.); that for “GGTGGGATGGGAGAGGAAGGAAGGGTCTCGCGGCGCGTCGCGGAGTCACCTAGTGCAG”, 9280 fluorescence intensity (a.u.). Regarding “CCGCCGCTCCAGCCCACCACCGCCGCCACTTCAGCTAGCTCGGAGTCACCTAGTGCAG”, the binding signal was 9950 fluorescence intensity (a.u.). Regarding “CAAGGACCAAAGTGCAAAACCCCACCTCGAATTCGATTTCCGGAGTCACCTAGTGCAG”, the binding signal was 8250 fluorescence intensity (a.u.). Regarding “GTTTACTCTCTGCGACTGCACCATCTCCATGACAGCTTAGCGGAGTCACCTAGTGCAG”, the binding signal is 10900 fluorescence intensity (a.u.). On to “CGCCATCATCGTCGTCGTCGTTGCCGTCGATAATCCTGACCGGAGTCACCTAGTGCAG”, for which the binding signal is 8420 fluorescence intensity (a.u.). “CTCTTGGCGATTTGCGGAAGTTGTTGTTGTCCCCTTGCTCCGGAGTCACCTAGTGCAG”: the binding signal is 8060 fluorescence intensity (a.u.). For “CCCATCTCGGGGTTGGAGGTGAGCTTGGAGCTCCCTGTTCCGGAGTCACCTAGTGCAG”, the binding signal is 8800 fluorescence intensity (a.u.). The result for “AGGAATTATATCTCTCTCTTGATTTATTAACACCTTTCTCCGGAGTCACCTAGTGCAG” reads 8190 fluorescence intensity (a.u.). Regarding “TCCCATTATTACATCGTCGTTGTGTTCAACTATTGCACTACGGAGTCACCTAGTGCAG”, the binding signal is 11200 fluorescence intensity (a.u.). “TTTCAGAATACACCATCGAAGCACGAATTTTCTTCGTTCCCGGAGTCACCTAGTGCAG”: the binding signal is 8690 fluorescence intensity (a.u.). As for “AAATTGTGCATGCCACCAAGTCTCTAGTATTATCCATCTACGGAGTCACCTAGTGCAG”, the figure is 8460 fluorescence intensity (a.u.). Regarding “CTGCGGGGAGGTGTAGGAGGAGGAGGGCGGAGGAGGTGGTCGGAGTCACCTAGTGCAG”, the binding signal was 8780 fluorescence intensity (a.u.). With “CACATCCTGAGGGCAGCAATTGGTTTTTTTTCCCATATTTCGGAGTCACCTAGTGCAG”, the binding signal was 11800 fluorescence intensity (a.u.). As to “ACCCTAATCCATCCATGGCGGTTAATACTTCGCGCGCATACGGAGTCACCTAGTGCAG”, the binding signal is 9390 fluorescence intensity (a.u.). In the case of “TACATTTGACCTATACGTACGTGCACTACTATACCAGTCACGGAGTCACCTAGTGCAG”, the binding signal is 9800 fluorescence intensity (a.u.). As for “TGCTAGTCTTCTTTCTTGTTTTGTTGTGTTTCTCATTTGTCGGAGTCACCTAGTGCAG”, the figure is 12800 fluorescence intensity (a.u.); as for “AATATATATTTGTATGGCTCTTTCATTGTATTACCTTCATCGGAGTCACCTAGTGCAG”, 11900 fluorescence intensity (a.u.); as for “GAGACACACGCTTCGTACTCTCATCTCAACCTTCAGATTCCGGAGTCACCTAGTGCAG”, 9120 fluorescence intensity (a.u.). Regarding “ACTTTTTTAAACATGTTTGGCCGTTCGTCTTATTCAAAAACGGAGTCACCTAGTGCAG”, the binding signal is 9620 fluorescence intensity (a.u.). For “GCCTGAAAGCCCAATACTTGTTTGTTTGTTTTGGGCCTCTCGGAGTCACCTAGTGCAG”, the binding signal is 8280 fluorescence intensity (a.u.).

Turning to “AACGAATTTTTTTTTCATCTCATCGTTCTACATGTTGGGTCGGAGTCACCTAGTGCAG”, the binding signal is 9440 fluorescence intensity (a.u.). “ATTCCGCTCCCTCCCGTCCACCGCCGCTGCCGCTGCCCCACGGAGTCACCTAGTGCAG”: the binding signal is 9270 fluorescence intensity (a.u.).

Turning to “ACTATCCGAAATTTCACTCTAATCTACTTTCGTCCCACATCGGAGTCACCTAGTGCAG”, the binding signal was 10000 fluorescence intensity (a.u.). As for “AACGCTATTTATTTTTTAAACATGTTTGATCGTTCGTCTTCGGAGTCACCTAGTGCAG”, the binding signal is 10200 fluorescence intensity (a.u.).

In the case of “CTGTTTAGTGGTGCTCCATTTGCAATGTTTGACACTTGATCGGAGTCACCTAGTGCAG”, the binding signal is 9410 fluorescence intensity (a.u.).

In the case of “TCAACTCCTCCCTGAGTCTAGTCCCGATCCGCCGTTGACCCGGAGTCACCTAGTGCAG”, the binding signal was 13000 fluorescence intensity (a.u.). Turning to “TTCGCACGGACTATGAAAACACCTCTTATTTTTTATTTTTCGGAGTCACCTAGTGCAG”, the binding signal is 8640 fluorescence intensity (a.u.). As to “CTTGCCACATCATTTTCTATTCTAGGTAGCAGCTTATTTACGGAGTCACCTAGTGCAG”, the binding signal was 8350 fluorescence intensity (a.u.). The result for “TGGGAAGTGGGGACCGAGCTCGTGGGTGGAGGATTACACACGGAGTCACCTAGTGCAG” reads 8940 fluorescence intensity (a.u.); that for “CCGTGCTGATGCTTTTGAGTGGTTTGCTTCGTGCCTCCAGCGGAGTCACCTAGTGCAG”, 8540 fluorescence intensity (a.u.).

For the sequence “TAAAAAATTTAAAGGGTAGTGGGTCTTTTGGGTTGGAGTGCGGAGTCACCTAGTGCAG”, the binding signal is 8690 fluorescence intensity (a.u.). The result for “ATGAGTTCCCAACCGCCACTTACATTAAGTACCACACTCCCGGAGTCACCTAGTGCAG” reads 8660 fluorescence intensity (a.u.). For “ATTATACCCTTATGTCTTGTTTAGTTCCCAAATTTTTTTTCGGAGTCACCTAGTGCAG”, the binding signal was 9000 fluorescence intensity (a.u.). As for “TTTAGATTGGATTTCGTTATGTGTTTTCCCATGTCATTTACGGAGTCACCTAGTGCAG”, the figure is 10800 fluorescence intensity (a.u.); as for “ATGGATTGCTGCCCCACTTTCAACCCATCTCTACCGTCCGCGGAGTCACCTAGTGCAG”, 12100 fluorescence intensity (a.u.). With “TATAGTTTTTTTCATACGTCATGCATTGTGCTTTCTCTATCGGAGTCACCTAGTGCAG”, the binding signal was 8120 fluorescence intensity (a.u.).
